# Source: PubChem BioAssay AID1347426 (Functional Genomics Laboratory (NCATS/FGL), 2020)
# Among all 31,000 sequences or so, about 1,400 (4.5%) were called active.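 The calls were made as follows: active = median seed-adjusted z-score above 1 or below -1; inactive = the rest.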 Some of the results follow.
# Assay: Novel Modifiers of Survival Motor Neuron (SMN) Protein: Gene Identification via Genome-wide siRNA Screen;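 also: luminescence tracks full-length SMN protein made from the SMN2 reporter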
# Details: HEK293T SMN2-luciferase reporter, siRNA knockdown, 72 h; actives lie on both sides
# Procedure, shortened: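 siRNA screen, 10418 genes ×3 siRNAs; 1 pmol/well, lipid reverse transfection into HEK293T SMN2-luc reporter line. 72 h, 37 °C, 5% CO2; ONE-Glo readout. Data: neg-ctrl normalized, log10, MAD; hit = MAD >1.0 or < -1.0.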
row,Sequence,median seed-adjusted z-score
1,AGUACAUCGCGGAUCUGUATT against RCN3,active: -2.44
2,AGUUCGACCCUGACCUGGATT against TH,inactive: -0.878
3,GCUGAAGUCCUGAAGGUCATT against PPP1R1B,inactive: -0.354
4,CGUCUAAGCUGAGGAAACATT against ZNF584,inactive: 0.172
5,GACCAAAAGUGGAACUCCATT against PTPN23,inactive: -0.0473
6,GUAUCUACUUGAUUAACCATT against SLC22A15,inactive: -0.137
7,CCACGAAACGUGAAGUUCATT against CDH5,inactive: -0.557
8,GCACGCACAUGUCAUUGAATT against ZDHHC1,inactive: 0
9,GUAGAACUCUCGUAUGCUATT against HNRNPU,inactive: 0.431
10,GCAUGCCUGAACUACAUAATT against RASSF1,inactive: -0.719
11,GGAUACAAUUAUAGCUACATT against FCN2,inactive: 0.281
12,GGGAGAUCCUUCGUCAAAATT against TRPV5,inactive: 0.0879
13,CCACGGUGCUUGUAUAACUTT against LNX1,inactive: -0.463
14,CAGUGAUCUUGGGACAUGATT against RCADH5,inactive: -0.158
15,CACUUAGUAAUGACAAUUATT against SLC17A6,inactive: 0.339
16,AGGCCGUUCUGUGCGAGAATT against DHDH,inactive: 0.522
17,CGGUGAAGCCCAAUGCAAATT against LGALS3,inactive: 0.14
18,CGGUCAUCAUUGUGGGUAATT against OSGIN1,inactive: -0.131
19,GAACCAUCUCAAUACUAUUTT against DACH2,inactive: -0.00102
20,CAUCAGCACUAGCACCUCATT against ZNF213,active: 1.37
21,GCAUAUUCAGACACUUAUUTT against GCA,inactive: -0.162
22,GCUACACUCAACUACCUGATT against ADCY5,inactive: -0.123
23,GGAAUGUCACGGCUAAUCATT against PITPNM3,inactive: -0.0378
24,GGUGCGGCCCUAUUACUUUTT against RPUSD2,inactive: -0.215
25,CCACUUGUCUCCUAACAAATT against KCNB1,inactive: 0.0206
26,CCGCAAAUUUUAACCUUGUTT against IL1R2,inactive: 0.429
27,GCAUCUUGGAUGUCCUACATT against DOCK3,inactive: 0.51
28,GGACACUAUAAGAAAGGAATT against FNTA,active: 1.04
29,GGAGGAUUUUGACCGACUUTT against RHOV,inactive: -0.326
30,AGAGGAAGCAUGAAAUGGATT against SIGLEC8,inactive: 0.0069

# Quoted at random: 2 entries already listed
row,Sequence,median seed-adjusted z-score
23,GGAAUGUCACGGCUAAUCATT against PITPNM3,inactive: -0.0378
30,AGAGGAAGCAUGAAAUGGATT against SIGLEC8,inactive: 0.0069
